The experiment deals with T1, AUTOPHAGY8 isoform ATG8f, Gal4BD fusion (Arabidopsis thaliana) (UniProt Q8VYK7).
T1 sequence: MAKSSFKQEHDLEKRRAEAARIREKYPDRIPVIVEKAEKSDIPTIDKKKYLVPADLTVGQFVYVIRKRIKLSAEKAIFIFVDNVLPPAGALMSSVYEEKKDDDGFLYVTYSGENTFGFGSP
Kind of experiment: two-hybrid.

Positions count from the first letter of the chain named. Names and notes keep the numbering of the source. These are yes or no findings as the source states them, for the method shown. Some results given as binding are weak or reduced against the parent protein; the word gives no strength. Tags and fused reporters may be left off the sequences shown.

B1: ATG8 Interacting Protein 2 (ATI2), Gal4AD fusion (protein, UniProt Q8VY98 1-266)
chain: MADKDEAATRGNDWEVVSLTASAYAAAPGPKPVVDSKDDDHKEVTPCYEAETSHPLYMSRHFVFPPTGQLENTSDLTEASLTGSHCKEGSDLSLKGLDLSDDFGGLEFSEDKGKKEENIYTTAMSSLDDERAIGGSHVYEPVEEPTEPVSPSDVTLDLNPIKDDEVANSPPSEEAWWKRSVASLIAQAKETNTVWSICIAAAVMGIVILGQHWQQERWQILQQKWESSIGNEKAGRLMGPISRLKQAFVGGQRRDSFIRASAQNDR
Turning to B1, the binding result is recorded as “binds”.

B2: ATI2 mutated in the N-terminal putative AIM (ATI2-AIM W14A/V17A), Gal4AD fusion (protein, UniProt Q8VY98 1-266)
chain: B1 chain with W14A, V17A
On to B2, for which the binding entry was “no binding”.

B3: ATI2 mutated in the C-terminal putative AIM (ATI2-AIM W218A/L221A), Gal4AD fusion (protein, UniProt Q8VY98 1-266)
chain: B1 chain with W218A, L221A
For B3, the binding result was “binds”.

(Values after publication doi:10.1101/406538 (bioRxiv, 2018).)
